Experimental data taken from doi:10.1101/2025.06.22.660944, “Structures of MmpL complexes reveal the assembly and mechanism of this family of transporters” (bioRxiv, 2025).

Chains of the proteins cited; added tags and fusions are not shown.
UniProt A0R0B3: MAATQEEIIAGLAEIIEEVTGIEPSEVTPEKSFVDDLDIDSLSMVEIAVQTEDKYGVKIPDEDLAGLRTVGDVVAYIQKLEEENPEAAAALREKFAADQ

Experiments:
[1] = molecular target: MmpL5 transporter (M. smegmatis, MSMEG_1382) (M. smegmatis) (UniProt A0QS80); test: cryo-EM structure; particle class 3: dipartite AcpM-MmpL5 trimeric complex, 3.37 Å; same LMNG-solubilized crude membrane sample, Build and Retrieve processing
[2] = molecular target: MmpL5 transporter (M. smegmatis, MSMEG_1382) (M. smegmatis) (UniProt A0QS80); test: cryo-EM structure; particle class 2: tripartite AcpM-MmpL5-MmpS5 trimeric complex, 2.81 Å; same LMNG-solubilized crude membrane sample, Build and Retrieve processing

Which results are given for “meromycolate extension acyl carrier protein M (AcpM) (from UniProt A0R0B3 1-99)”?
binding [1]: binds; binding [2]: binds

These are yes or no findings as the source states them, for the method shown. Binding calls can cover weak binding; strength is not graded here.
